Results: the supplement of paper PMC4840960
The other results are listed elsewhere or left out. Part of the spread comes from offsets between plates or batches.

Test system: E18 rat cortical neuron-glia co-culture
Experiment: total nuclei (DAPI) / Olig2+ nuclei (ratio); higher = more depletion of OPC/OL lineage cells
Conditions: treatment time: 8 days (DIV5-DIV13)

SMILES	total nuclei (1 µM)	total nuclei (5 µM)
CC[C@H]1OC(=O)[C@H](C)[C@@H](O[C@H]2C[C@@](C)(OC)[C@@H](O)[C@H](C)O2)[C@H](C)[C@@H](O[C@@H]2O[C@H](C)C[C@H](N(C)C)[C@H]2O)[C@](C)(O)C[C@@H](C)CN(C)[C@H](C)[C@@H](O)[C@]1(C)O [Azithromycin]	3.9	4.9
Nc1nc(=O)[nH]cc1F [Flucytosine]	4.98	4.7
CC(=O)NS(=O)(=O)c1ccc(N)cc1 [Sulfacetamide]	2.76	2.9
CCc1oc2ccccc2c1C(=O)c1cc(Br)c(O)c(Br)c1 [Benzbromarone]	2.76	2.6
CCCc1cc(=O)[nH]c(=S)[nH]1 [Propylthiouracil]	2.71	2.7
C#C[C@]1(O)CC[C@H]2[C@@H]3CCc4cc(OC)ccc4[C@H]3CC[C@@]21C [Mestranol]	2.64	3.3
CC(C)(C)NCC(O)c1ccc(O)c(CO)c1 (stereo not drawn) [Albuterol]	4.2	4.9
Cn1ccnc1S [Methimazole]	4.16	4
CCN(CC)CCOC(=O)C1(C2CCCCC2)CCCCC1 [Dicyclomine]	3.99	4.3
C=CCc1ccc(O)c(-c2ccc(O)c(CC=C)c2)c1 [Honokiol]	4.37	> 40
C[C@]12CCC(=O)C=C1CC[C@@H]1[C@@H]2C(=O)C[C@@]2(C)[C@H]1CC[C@]2(O)C(=O)CO [Cortisone]	2.79	2.8
O=S(=O)(O)CCS [Mesna]	2.54	2.4
CN(CCO)CC(O)Cn1cnc2c1c(=O)n(C)c(=O)n2C (stereo not drawn) [Jupal]	2.8	2.9
Cc1ncc([N+](=O)[O-])n1CC(C)O (stereo not drawn) [Secnidazole]	3.42	3.5
O=C(O)COCCN1CCN(C(c2ccccc2)c2ccc(Cl)cc2)CC1 (stereo not drawn) [Virlix]	3.78	3.7
OCCN1C[C@H](O)[C@@H](O)[C@H](O)[C@H]1CO [Miglitol]	5.55	4.4
N[C@@H](Cc1cc(I)c(Oc2ccc(O)c(I)c2)c(I)c1)C(=O)O [Triiodothyronine]	3.34	4.4
CCCCC1=NC2(CCCC2)C(=O)N1Cc1ccc(-c2ccccc2-c2nnn[nH]2)cc1 [Irbesartan]	2.72	2.8
Nc1nc(N)c2nc(-c3ccccc3)c(N)nc2n1 [Triamterene]	6.53	25.8
CN(C)[C@@H]1C(O)=C(C(N)=O)C(=O)[C@@]2(O)C(O)=C3C(=O)c4c(O)cccc4C[C@H]3C[C@@H]12 [Sancycline]	2.7	2.8
NC12CC3CC(CC(C3)C1)C2 [Amantadine]	3.53	4.1
CC(COc1ccccc1)NC(C)C(O)c1ccc(O)cc1 (stereo not drawn) [Isoxsuprine]	3.64	3.8
CCN(CC)CC1CCCCN1CC(=O)N1c2ccccc2C(=O)Nc2cccnc21 (stereo not drawn) [Otenzepad]	2.66	2.6
C=CC1=C(C(=O)O)N2C(=O)[C@@H](NC(=O)/C(=N\OCC(=O)O)c3csc(N)n3)[C@H]2SC1 [Cefixime]	2.81	3.6
CC(=O)O[C@H]1C[C@@H]2CC[C@@H]3[C@H](CC[C@@]4(C)[C@H]3C[C@H]([N+]3(C)CCCCC3)[C@@H]4OC(C)=O)[C@@]2(C)C[C@@H]1N1CCCCC1 [Vecuronium Bromide]	2.88	2.9
OCCN1CCN(CCCN2c3ccccc3Sc3ccc(C(F)(F)F)cc32)CC1 [Fluphenazine]	3.07	31.5
CN(C)CCOc1ccc(/C(=C(/CCCl)c2ccccc2)c2ccccc2)cc1 [Toremifene]	3.15	> 40
Cc1cccc(C)c1OCC(C)N (stereo not drawn) [Mexiletine]	2.45	2.5
CC[C@H]1OC(=O)[C@H](C)[C@@H](O[C@H]2C[C@@](C)(OC)[C@@H](O)[C@H](C)O2)[C@H](C)[C@@H](O[C@@H]2O[C@H](C)C[C@H](N(C)C)[C@H]2O)[C@](C)(O)C[C@@H](C)C(=O)[C@H](C)[C@@H](O)[C@]1(C)O [Erythromycin]	4.25	> 40

Quoted at random: 2 records from the list, in no set order.
SMILES	total nuclei (1 µM)	total nuclei (5 µM)
C[C@]12CCC(=O)C=C1CC[C@@H]1[C@@H]2C(=O)C[C@@]2(C)[C@H]1CC[C@]2(O)C(=O)CO [Cortisone]	2.79	2.8
N[C@@H](Cc1cc(I)c(Oc2ccc(O)c(I)c2)c(I)c1)C(=O)O [Triiodothyronine]	3.34	4.4
